The target in one assay is T1, Nan1-HA (S. cerevisiae) (UniProt Q02931).
T1 sequence: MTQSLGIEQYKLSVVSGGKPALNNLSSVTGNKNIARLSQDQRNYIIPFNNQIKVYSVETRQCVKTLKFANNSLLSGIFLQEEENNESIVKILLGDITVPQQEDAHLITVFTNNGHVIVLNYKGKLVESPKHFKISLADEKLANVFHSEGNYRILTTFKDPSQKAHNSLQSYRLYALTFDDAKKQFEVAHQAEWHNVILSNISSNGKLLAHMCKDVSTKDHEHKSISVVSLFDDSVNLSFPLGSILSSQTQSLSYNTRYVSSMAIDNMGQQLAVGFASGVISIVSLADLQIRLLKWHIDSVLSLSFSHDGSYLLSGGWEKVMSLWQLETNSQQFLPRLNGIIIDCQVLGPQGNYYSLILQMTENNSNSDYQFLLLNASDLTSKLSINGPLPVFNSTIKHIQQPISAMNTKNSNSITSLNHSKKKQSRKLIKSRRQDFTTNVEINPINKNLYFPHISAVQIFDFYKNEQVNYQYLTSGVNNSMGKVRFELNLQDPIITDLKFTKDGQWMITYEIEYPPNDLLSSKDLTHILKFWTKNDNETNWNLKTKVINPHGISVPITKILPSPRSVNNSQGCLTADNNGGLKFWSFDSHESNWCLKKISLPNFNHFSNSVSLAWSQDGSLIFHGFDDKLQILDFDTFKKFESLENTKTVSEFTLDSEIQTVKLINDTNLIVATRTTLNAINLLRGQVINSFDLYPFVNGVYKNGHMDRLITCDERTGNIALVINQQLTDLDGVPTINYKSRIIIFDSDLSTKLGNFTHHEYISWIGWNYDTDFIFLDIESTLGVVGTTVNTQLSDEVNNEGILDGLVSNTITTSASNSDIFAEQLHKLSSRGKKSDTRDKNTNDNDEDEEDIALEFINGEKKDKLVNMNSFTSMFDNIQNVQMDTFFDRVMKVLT
Put plainly: affinity purification with mass spectrometry; bacmid K2000 (all seven tUTP candidates); two-step: anti-FLAG eluate (Utp15-FLAG) purified again on anti-HA affinity matrix with Nan1-HA as bait, HA peptide elution; SDS-PAGE, Coomassie, MS of bands.

The target of assay [1] is T2, Utp15-FLAG (S. cerevisiae) (UniProt Q04305).
T2 sequence: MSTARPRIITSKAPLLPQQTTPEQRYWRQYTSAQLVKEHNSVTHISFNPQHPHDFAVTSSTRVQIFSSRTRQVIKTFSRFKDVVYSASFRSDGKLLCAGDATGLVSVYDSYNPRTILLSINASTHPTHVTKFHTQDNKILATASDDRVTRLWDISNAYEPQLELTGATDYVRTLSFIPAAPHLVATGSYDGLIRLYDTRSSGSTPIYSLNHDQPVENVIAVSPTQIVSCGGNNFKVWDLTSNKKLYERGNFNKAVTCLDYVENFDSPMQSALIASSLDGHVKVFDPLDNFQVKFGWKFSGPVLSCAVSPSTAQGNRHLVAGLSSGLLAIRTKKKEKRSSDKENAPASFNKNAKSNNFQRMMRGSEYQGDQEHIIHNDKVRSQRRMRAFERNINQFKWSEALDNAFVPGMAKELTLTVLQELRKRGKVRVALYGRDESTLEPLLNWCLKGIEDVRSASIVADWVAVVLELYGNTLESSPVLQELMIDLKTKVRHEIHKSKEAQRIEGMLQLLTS
As to the kind of experiment: affinity purification with mass spectrometry; bacmid K2123 (five pentamer proteins); two-step: IgG Sepharose/TEV eluate (Utp4-TAP) purified again on anti-FLAG affinity matrix with Utp15-FLAG as bait, FLAG peptide elution; SDS-PAGE, Coomassie, MS of bands.

For a further assay, the target named is T3, Utp4-TAP (S. cerevisiae) (UniProt Q06679).
T3 sequence: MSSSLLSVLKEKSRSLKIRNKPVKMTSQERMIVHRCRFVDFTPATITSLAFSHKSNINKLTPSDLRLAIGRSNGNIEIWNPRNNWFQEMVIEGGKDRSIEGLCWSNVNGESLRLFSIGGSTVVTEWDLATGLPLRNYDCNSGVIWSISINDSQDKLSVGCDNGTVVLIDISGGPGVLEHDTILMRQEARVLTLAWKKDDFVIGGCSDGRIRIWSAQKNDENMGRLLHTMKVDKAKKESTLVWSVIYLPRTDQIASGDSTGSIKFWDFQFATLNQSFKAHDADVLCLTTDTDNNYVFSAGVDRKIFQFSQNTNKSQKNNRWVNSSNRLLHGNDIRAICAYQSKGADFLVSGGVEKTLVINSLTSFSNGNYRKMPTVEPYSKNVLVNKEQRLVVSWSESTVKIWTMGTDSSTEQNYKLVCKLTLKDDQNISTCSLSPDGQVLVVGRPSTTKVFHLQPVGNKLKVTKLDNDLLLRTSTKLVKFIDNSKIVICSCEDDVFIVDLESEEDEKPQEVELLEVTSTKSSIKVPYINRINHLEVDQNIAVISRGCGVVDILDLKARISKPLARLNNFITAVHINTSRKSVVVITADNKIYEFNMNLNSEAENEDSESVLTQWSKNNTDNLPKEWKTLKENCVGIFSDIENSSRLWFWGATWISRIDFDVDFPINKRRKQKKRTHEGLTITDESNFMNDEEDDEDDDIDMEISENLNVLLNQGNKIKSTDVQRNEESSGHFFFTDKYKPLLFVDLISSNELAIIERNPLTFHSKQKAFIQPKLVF
Put plainly: affinity purification with mass spectrometry; Utp4-TAP, Utp5, Utp8, Utp9 and Utp15-FLAG co-expressed in SF21 cells (bacmid K2123), without Nan1 and Utp10; one-step, bait Utp4-TAP on IgG Sepharose, TEV elution; SDS-PAGE, Coomassie, MS of bands.

The target in assay [2] is T2, Utp15-FLAG (S. cerevisiae). As to the kind of experiment: affinity purification with mass spectrometry; Utp4, Utp5, Utp8, Utp9, Utp10, Utp15-FLAG and Nan1-HA co-expressed in SF21 cells (bacmid K2000); one-step, bait Utp15-FLAG on anti-FLAG affinity matrix, lysate cleared by low-speed centrifugation, buffer A100+ (20 mM Tris-HCl pH 8, 100 mM KCl, 5 mM Mg(OAc)2, 0.5% Triton X-100, 0.1% Tween-20), 4°C, FLAG peptide elution; SDS-PAGE, Coomassie, MS of bands.

Assay [3] has as its target T4, Utp6-HA (S. cerevisiae) (UniProt Q02354).
T4 sequence: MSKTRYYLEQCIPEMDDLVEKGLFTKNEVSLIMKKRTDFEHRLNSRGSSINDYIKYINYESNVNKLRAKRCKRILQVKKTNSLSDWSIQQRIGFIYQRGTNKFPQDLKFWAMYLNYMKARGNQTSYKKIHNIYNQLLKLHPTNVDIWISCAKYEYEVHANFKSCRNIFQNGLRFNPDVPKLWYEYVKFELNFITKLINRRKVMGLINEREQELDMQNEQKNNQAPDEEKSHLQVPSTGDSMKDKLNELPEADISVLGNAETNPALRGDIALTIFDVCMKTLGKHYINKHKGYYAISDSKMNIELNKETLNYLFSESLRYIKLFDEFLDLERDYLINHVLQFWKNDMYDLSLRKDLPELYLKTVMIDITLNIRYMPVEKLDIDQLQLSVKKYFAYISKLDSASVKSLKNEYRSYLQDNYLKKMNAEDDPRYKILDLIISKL
As to the kind of experiment: affinity purification with mass spectrometry; bacmid K1991 (six UTP B proteins); two-step: IgG Sepharose/TEV eluate (Pwp2-TAP) purified again on anti-HA affinity matrix with Utp6-HA as bait, HA peptide elution; SDS-PAGE, Coomassie, MS of bands.

Assay [4] concerns the target T4, Utp6-HA (S. cerevisiae). Put plainly: affinity purification with mass spectrometry; bacmid K1992 (six UTP B proteins); two-step: anti-FLAG eluate (Utp12-FLAG) purified again on anti-HA affinity matrix with Utp6-HA as bait, HA peptide elution; SDS-PAGE, Coomassie, MS of bands.
In another assay the target is T5, Pwp2-TAP (S. cerevisiae) (UniProt P25635).
T5 sequence: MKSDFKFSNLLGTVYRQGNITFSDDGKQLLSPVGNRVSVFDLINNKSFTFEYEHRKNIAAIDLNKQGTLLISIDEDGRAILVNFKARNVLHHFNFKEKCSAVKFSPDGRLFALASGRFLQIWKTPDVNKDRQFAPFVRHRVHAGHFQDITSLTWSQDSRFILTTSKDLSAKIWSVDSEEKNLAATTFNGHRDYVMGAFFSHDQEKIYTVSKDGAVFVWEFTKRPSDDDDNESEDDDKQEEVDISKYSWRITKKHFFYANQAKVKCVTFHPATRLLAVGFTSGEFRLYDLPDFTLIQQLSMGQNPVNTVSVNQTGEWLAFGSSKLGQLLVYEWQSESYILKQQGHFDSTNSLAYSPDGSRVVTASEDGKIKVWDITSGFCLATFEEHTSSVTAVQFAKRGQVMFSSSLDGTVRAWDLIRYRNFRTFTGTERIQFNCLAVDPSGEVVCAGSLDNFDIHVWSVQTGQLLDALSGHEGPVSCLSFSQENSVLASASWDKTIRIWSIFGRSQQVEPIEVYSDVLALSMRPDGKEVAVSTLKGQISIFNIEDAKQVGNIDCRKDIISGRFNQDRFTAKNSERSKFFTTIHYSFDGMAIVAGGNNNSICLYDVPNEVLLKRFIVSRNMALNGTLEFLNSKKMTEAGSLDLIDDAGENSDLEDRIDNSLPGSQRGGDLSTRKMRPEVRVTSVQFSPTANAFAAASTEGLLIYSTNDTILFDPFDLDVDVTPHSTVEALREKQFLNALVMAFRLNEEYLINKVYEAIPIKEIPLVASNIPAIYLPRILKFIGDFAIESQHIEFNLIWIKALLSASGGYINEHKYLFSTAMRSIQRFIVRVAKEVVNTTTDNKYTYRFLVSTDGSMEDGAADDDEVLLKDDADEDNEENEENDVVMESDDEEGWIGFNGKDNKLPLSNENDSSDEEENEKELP
Put plainly: affinity purification with mass spectrometry; Pwp2-TAP, Utp6-HA, Utp12-FLAG, Utp13, Utp18 and Utp21 co-expressed in SF21 cells (bacmid K1991); one-step, bait Pwp2-TAP on IgG Sepharose, TEV elution; SDS-PAGE, Coomassie, MS of bands.

These are yes or no findings as the source states them, for the method shown. In cells and extracts the contact can be indirect. These calls come from enrichment with a bait or labelling near it, and not all partners need be listed. For some of these results: Where a sequence is shown, tags or fusion partners need not be part of it.

B1: Utp8 (protein, UniProt P53276 1-713)
chain: MPSLSQPFRLATLPKIASLSNFSLQADYVQVADGTFNESTNNITLGISGSSISQYIINPTPKLTFDYPIPSTNIITACNAEKGQANIDGNIEASTDDEANNEKTINTQKKRNVEIWAFGLMVNKGNYTLNVITKALEDTTDTSNDHLSESDIDNKAYTGSDEFLSQYKIKAKAKVMSIKIDTKNSLVIAILQNGLIEIFDFKLTLLHSFDISYDNLKYAKWFTENGTEYVFVLCPLQDDKVCYKLLELTDCGSGESSPIKELSSTIIEGFSFENSKLCYQFGKLYKLNQGKIYIYSLPHCQLQQVIEFPMVDKLSPGDDLISFQPVSVNRVLLTVNNVIYLLDLLHCSTLSQRELTHVKTFQLLKSAVINSEKSHNSKTIAIGISTKNGPNPTSSLEIINIDVGTNTLKDSLGKSFQVGNNDSSVILKPLFDDKDINDKRVKCNDVSGDSSVPVLHCNEVIEKLSALQDNDITSFDDIFFKELKIKEEHYTEKDRYISDPGFLNKVLDLIFGKFSGNDYPKTLTFLLTHPLFPLSRTRNLLSLLRDQPRLFKQAIVTCPNLPLNELLEELFSIRNRELLLDISFRILQDFTRDSIKQEMKKLSKLDVQNFIEFITSGGEDSSPECFNPSQSTQLFQLLSLVLDSIGLFSLEGALLENLTLYIDKQVEIAERNTELWNLIDTKGFQHGFASSTFDNGTSQKRALPTYTMEYLDI
For B1, the binding entry with Nan1-HA (S. cerevisiae) is “binds weakly”; in assay [1], “binds”; in the assay with Utp4-TAP (S. cerevisiae) it was “binds”; in assay [2], “binds”.

B2: Utp12-FLAG (protein, UniProt Q12220 1-943)
chain: MVKSYQRFEQAAAFGVIASNANCVWIPASSGNSNGSGPGQLITSALEDVNIWDIKTGDLVSKLSDGLPPGASDARGAKPAECTYLEAHKDTDLLAVGYADGVIKVWDLMSKTVLLNFNGHKAAITLLQFDGTGTRLISGSKDSNIIVWDLVGEVGLYKLRSHKDSITGFWCQGEDWLISTSKDGMIKLWDLKTHQCIETHIAHTGECWGLAVKDDLLITTGTDSQVKIWKLDIENDKMGGKLTEMGIFEKQSKQRGLKIEFITNSSDKTSFFYIQNADKTIETFRIRKEEEIARGLKKREKRLKEKGLTEEEIAKSIKESYSSFILHPFQTIRSLYKIKSASWTTVSSSKLELVLTTSSNTIEYYSIPYEKRDPTSPAPLKTHTIELQGQRTDVRSIDISDDNKLLATASNGSLKIWNIKTHKCIRTFECGYALTCKFLPGGLLVILGTRNGELQLFDLASSSLLDTIEDAHDAAIWSLDLTSDGKRLVTGSADKTVKFWDFKVENSLVPGTKNKFLPVLKLHHDTTLELTDDILCVRVSPDDRYLAISLLDNTVKVFFLDSMKFYLSLYGHKLPVLSIDISFDSKMIITSSADKNIKIWGLDFGDCHKSLFAHQDSIMNVKFLPQSHNFFSCSKDAVVKYWDGEKFECIQKLYAHQSEVWALAVATDGGFVVSSSHDHSIRIWEETEDQVFLEEEKEKELEEQYEDTLLTSLEEGNGDDAFKADASGEGVEDEASGVHKQTLESLKAGERLMEALDLGIAEIEGLEAYNRDMKLWQRKKLGEAPIKPQGNAVLIAVNKTPEQYIMDTLLRIRMSQLEDALMVMPFSYVLKFLKFIDTVMQNKTLLHSHLPLICKNLFFIIKFNHKELVSQKNEELKLQINRVKTELRSALKSTEDDLGFNVQGLKFVKQQWNLRHNYEFVDEYDQQEKESNSARKRVFGTVI
As for B2, the binding result with Utp6-HA (S. cerevisiae) [3], with Utp6-HA (S. cerevisiae) [4] and in the assay with Pwp2-TAP (S. cerevisiae) was “binds” each time.

Source of the values: article PMC4264851.
